Results: patent US11766467B2, “Methods of treating wounds using cathepsin K inhibitors” (University of Wyoming, priority 2017, dated 2023)
“Also recorded” adds a separate entry of the source. At least one compound was matched to its structure with a doubt left.

Test system: full-thickness wounds in diabetic pigs
Test: porcine diabetic (streptozotocin) wound healing model, full-thickness wounds, intradermal injections
Format: in vivo
Protocol: Odanacatib is a potent and selective inhibitor of cathepsin K and can be administered to promote wound healing in diabetic pigs. Pigs (3-4 months old) were rendered diabetic with intravenous injection of streptozotocin (75 mg/Kg). Four weeks following streptozotocin injections 6-10 full-thickness (one-inch square, ˜[…] thickness) wounds were created in two columns on each side of the dorsal thoracolumbar midline. […] Wounds were photographed prior to treatment and analyzed for wound closure rates.
Data are expressed as mean±SEM (n=8 for vehicle and 6 each for odanacatib treatment). […] Because some values are missing as we had euthanized one pig from each group on day 14 for molecular analysis, the data were analyzed by fitting a mixed model, rather than by repeated measures ANOVA. […]

## CC(C)(F)C[C@H](N[C@@H](c1ccc(-c2ccc(S(C)(=O)=O)cc2)cc1)C(F)(F)F)C(=O)NC1(C#N)CC1 [odanacatib]
Diabetic pigs
  wound closure / wound healing (in words): facilitate wound closure; also recorded: accelerates wound-healing
Lower dose 30 ng/mm^2/wound, day 14 post-wounding
  wound area: improvement in wound healing: statistically significant improvement in wound healing compared to both vehicle and the higher dose
